No constants are given. Whether binding was seen depends on the method and setting. Binding seen in cells or lysates may run through a third protein. Some results given as binding are weak or reduced against the parent protein; the word gives no strength.
Columns and labels:
[1] = target: Signal transducer and activator of transcription 3 (STAT3), endogenous human (human (endogenous in HT-29, SW480 and human CRC tissue)) (UniProt P40763); assay: co-IP; nuclear and cytosolic extracts of HT-29 cells without or with IL-6; IP with anti-Trx-1 or anti-STAT3; immunoblot
[2] = target: Signal transducer and activator of transcription 3 (STAT3), endogenous human (human (endogenous in HT-29, SW480 and human CRC tissue)) (UniProt P40763); assay: co-IP; human CRC tissue lysates; IP with anti-Trx-1 or anti-STAT3 antibody; immunoblot with anti-pSTAT3, anti-Kpnα1 or anti-Trx-1
[3] = target: Signal transducer and activator of transcription 3 (STAT3), endogenous human (human (endogenous in HT-29, SW480 and human CRC tissue)) (UniProt P40763); assay: co-IP; endogenous proteins in total lysates (500 μg) of HT-29 and SW480 cells treated with 20 ng/mL IL-6 or vehicle for 2 h; IP with anti-Trx-1 or anti-STAT3 antibody or control IgG on protein G beads, 1 h at room temperature; immunoblot
[4] = target: karyopherin α1 (Kpnα1), endogenous human (human (endogenous in HT-29, SW480 and human CRC tissue)) (UniProt P52294); assay: co-IP; lysates of HT-29 cells stably expressing WT-Trx-1, MT-Trx-1, shTrx-1 or control vector, without or with IL-6; IP with anti-Trx-1 or anti-Kpnα1 antibody; immunoblot

The chains behind the UniProt entries cited, without tags or fusion partners.
UniProt P40763: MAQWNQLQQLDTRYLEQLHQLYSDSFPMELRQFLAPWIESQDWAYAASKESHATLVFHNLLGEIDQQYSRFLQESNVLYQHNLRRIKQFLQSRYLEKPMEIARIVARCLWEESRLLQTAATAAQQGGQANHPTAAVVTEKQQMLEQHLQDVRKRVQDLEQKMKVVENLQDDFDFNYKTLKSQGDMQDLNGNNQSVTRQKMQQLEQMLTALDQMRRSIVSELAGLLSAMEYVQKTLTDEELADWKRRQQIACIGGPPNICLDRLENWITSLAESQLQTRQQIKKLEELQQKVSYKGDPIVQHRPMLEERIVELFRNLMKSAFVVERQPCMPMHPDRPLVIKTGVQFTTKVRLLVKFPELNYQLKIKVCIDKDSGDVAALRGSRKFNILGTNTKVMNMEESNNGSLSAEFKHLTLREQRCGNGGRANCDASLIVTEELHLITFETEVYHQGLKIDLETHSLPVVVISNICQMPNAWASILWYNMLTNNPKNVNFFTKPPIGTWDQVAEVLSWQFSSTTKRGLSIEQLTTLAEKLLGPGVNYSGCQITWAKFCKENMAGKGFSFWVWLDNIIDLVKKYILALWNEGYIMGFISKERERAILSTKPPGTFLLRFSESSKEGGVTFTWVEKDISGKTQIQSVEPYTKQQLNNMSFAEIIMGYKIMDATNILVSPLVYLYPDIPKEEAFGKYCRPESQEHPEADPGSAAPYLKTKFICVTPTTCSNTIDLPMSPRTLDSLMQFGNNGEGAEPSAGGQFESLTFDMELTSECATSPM
UniProt P52294: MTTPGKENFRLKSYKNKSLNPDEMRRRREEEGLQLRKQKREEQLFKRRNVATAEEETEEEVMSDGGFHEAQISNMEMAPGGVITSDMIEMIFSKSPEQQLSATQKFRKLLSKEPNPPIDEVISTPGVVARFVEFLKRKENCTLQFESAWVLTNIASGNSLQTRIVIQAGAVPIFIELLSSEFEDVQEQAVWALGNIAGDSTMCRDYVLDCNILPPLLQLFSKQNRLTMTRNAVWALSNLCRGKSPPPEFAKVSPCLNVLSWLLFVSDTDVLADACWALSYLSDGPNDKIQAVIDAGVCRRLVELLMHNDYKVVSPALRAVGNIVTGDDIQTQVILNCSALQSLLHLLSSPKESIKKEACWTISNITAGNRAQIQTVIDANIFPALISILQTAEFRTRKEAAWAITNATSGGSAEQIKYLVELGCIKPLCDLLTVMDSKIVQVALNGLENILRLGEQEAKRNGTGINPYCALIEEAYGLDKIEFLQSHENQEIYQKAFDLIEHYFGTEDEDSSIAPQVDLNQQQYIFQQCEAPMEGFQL

B1: Thioredoxin-1 (Trx-1), endogenous human (protein, UniProt P10599 1-105)
chain: MVKQIESKTAFQEALDAAGDKLVVVDFSATWCGPCKMIKPFFHSLSEKYSNVIFLEVDVDDCQDVASECEVKCMPTFQFFKKGQKVGEFSGANKEKLEATINELV
binding [1]: binds | binding [2]: binds | binding [3]: binds

B2: WT-Trx-1 (human wild-type Trx-1, lentivirally expressed) (protein, UniProt P10599 1-105)
chain: B1 chain
binding [4]: binds
